# Experimental data published in patent US20220088115A1, “PHARMACEUTICAL COMPOSITION, COMPRISING INHIBITORY PEPTIDE AGAINST FAS SIGNALING, FOR PREVENTION OR TREATMENT OF OBESITY, FATTY LIVER, OR STEATOHEPATITIS” (SIGNET BIOTECH INC., priority 2018, published 2022).
# At least one peptide structure holds a part that was inferred or is arguable (an end, a ring closure or a residue). Where a SMILES comes first, the peptide text is derived from it.
# How the values were obtained:
# Fas = target: T1, Fas (Homo sapiens, UniProt P25445); assay: Binding of Alexa647-labeled peptides to Fas-expressing Jurkat cell line; conditions: Jurkat cell line always expressing Fas; Alexa647-labeled peptide
# T1 construct: A Jurkat cell line, in which Fas is always expressed; host or cells: Jurkat
# T1 sequence (P25445 26-335): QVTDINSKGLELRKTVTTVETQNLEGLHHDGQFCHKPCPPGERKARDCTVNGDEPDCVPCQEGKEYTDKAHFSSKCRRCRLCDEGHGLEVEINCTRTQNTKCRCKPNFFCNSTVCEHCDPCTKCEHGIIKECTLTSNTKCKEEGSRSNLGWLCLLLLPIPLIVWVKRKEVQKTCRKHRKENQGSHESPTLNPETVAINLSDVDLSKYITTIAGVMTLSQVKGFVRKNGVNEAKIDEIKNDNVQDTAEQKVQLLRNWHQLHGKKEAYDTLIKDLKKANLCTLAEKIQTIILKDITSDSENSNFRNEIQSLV
# Protocol: A Jurkat cell line which is a human blood cancer cell line and a 3T3L1 cell line which is a murine adipocyte were purchased from ATCC (USA), and the Jurkat cell line was cultured in an RPMI culture medium containing 10% fetal bovine serum (FBS), 1% penicillin, 1% streptomycin, and 25 mM glucose.
# A Jurkat cell line, in which Fas is always expressed, was treated with an FITC-labeled Fas antibody and treated with Alexa647-labeled FBP-8, FBP-A, FBP-7 or control peptide (YCNSTVCY; CtrFBP).
# obesity model mice [1] = assay: Liver triglyceride, blood fatty acid and ALT, obesity model mice, subcutaneous FBP-7; assay type: in vivo, C57BL/6 mice
# obesity model mice [2] = assay: Body weight and food intake, obesity model mice, subcutaneous FBP-7; assay type: in vivo, C57BL/6 mice
# obesity model mice [3] = assay: Glucose resistance evaluation, obesity model mice, subcutaneous FBP-7; assay type: in vivo, C57BL/6 mice; conditions: compared to negative control (CtrFBP)
# obesity model mice [4] = assay: Gene expression in liver tissues, obesity model mice, subcutaneous FBP-7; assay type: in vivo, C57BL/6 mice
# obesity model mice [5] = assay: Liver weight and histological analysis, obesity model mice, subcutaneous FBP-7; assay type: in vivo, C57BL/6 mice
# obesity model mice [6] = assay: Pro-inflammatory cytokines in blood, obesity model mice, subcutaneous FBP-7; assay type: in vivo, C57BL/6 mice
# [7] = compared to negative control (CtrFBP)
# [8] = compared to liraglutide-administered group
compound,measurement,setting,value
"N[C@@H](Cc1ccc(O)cc1)C(=O)N[C@@H](CS)C(=O)N[C@@H](CC(=O)O)C(=O)N[C@@H](CCC(=O)O)C(=O)N[C@@H](Cc1c[nH]cn1)C(=O)N[C@@H](Cc1ccccc1)C(=O)N[C@@H](Cc1ccc(O)cc1)C(=O)O [FBP-7, YCDEHFY] (H-YCDEHFY-OH; N-terminus and C-terminus assumed)",binding to Jurkat cells (Alexa647 signal),Fas,bound to Jurkat cells at similar levels
same,blood alanine aminotransferase (ALT) level,obesity model mice [1],significantly reduced
same,blood fatty acid concentration,obesity model mice [1]; [7],significantly reduced
same,triglyceride level in the liver tissue,obesity model mice [1]; [7],significantly reduced
same,food intake,obesity model mice [2],slight decrease
same,body weight gain,obesity model mice [2]; compared to negative control,remarkably suppressed
same,glucose resistance evaluation (blood glucose),obesity model mice [3],excellent blood glucose increase-slowing effect and normal blood glucose recovery
same,expression of Fas in the liver tissue,obesity model mice [4],remarkably reduced
same,PPAR-γ expression-reducing effect,obesity model mice [4]; [8],remarkably better
same,expression level of CD206 in liver tissue,obesity model mice [4]; [8],increased more
same,expression level of F4/80 in liver tissue,obesity model mice [4]; [8],significantly decreased
same,expression level of CD206 in liver tissue,obesity model mice [4]; [7],increased remarkably
same,expression level of PPAR-γ in the liver,obesity model mice [4]; [7],reduced
same,expression levels of F480 and CD11c in liver tissue,obesity model mice [4]; [7],decreased
same,"expression levels of inflammation-related genes TNF-α, MCP-1 and IL-6 in liver tissue",obesity model mice [4]; [7],decreased
same,liver tissue damage (histological analysis of liver tissue sections),obesity model mice [5],inhibiting tissue damage at a level similar to that of the liraglutide-administered group
same,liver tissue weight,obesity model mice [5]; [7],reduced
same,blood levels of pro-inflammatory cytokines IL-6 and MCP-1,obesity model mice [6],reduced
